Source: article PMC8998743, “Dimerization Activity of a Disordered N-Terminal Domain from Drosophila CLAMP Protein” (International Journal of Molecular Sciences, 2022)
Results are given in words; binding and its absence hold for the method and conditions named. Binding calls can cover weak binding; strength is not graded here. Sequences can lack the tags named with a protein.

Assays:
[1] = molecular target: T1, CLAMP^1–153 (GAL4 fusion for Y2H) (D. melanogaster) (UniProt Q9V9N4); assay: two-hybrid; GAL4 DNA-binding domain (pGBT9) and activation domain (pGAD424) fusions in yeast strain pJ69-4A; growth on selective media without tryptophan, leucine, histidine, or adenine, compared after 2-3 days; 30 °C
T1 sequence: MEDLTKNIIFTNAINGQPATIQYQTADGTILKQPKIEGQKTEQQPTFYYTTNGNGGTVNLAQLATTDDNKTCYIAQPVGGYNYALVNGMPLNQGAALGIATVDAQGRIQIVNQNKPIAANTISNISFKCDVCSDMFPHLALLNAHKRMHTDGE

[2] = molecular target: T2, D. melanogaster MSL2 (GAL4 fusion for Y2H) (D. melanogaster) (UniProt P50534); assay: as above
T2 sequence: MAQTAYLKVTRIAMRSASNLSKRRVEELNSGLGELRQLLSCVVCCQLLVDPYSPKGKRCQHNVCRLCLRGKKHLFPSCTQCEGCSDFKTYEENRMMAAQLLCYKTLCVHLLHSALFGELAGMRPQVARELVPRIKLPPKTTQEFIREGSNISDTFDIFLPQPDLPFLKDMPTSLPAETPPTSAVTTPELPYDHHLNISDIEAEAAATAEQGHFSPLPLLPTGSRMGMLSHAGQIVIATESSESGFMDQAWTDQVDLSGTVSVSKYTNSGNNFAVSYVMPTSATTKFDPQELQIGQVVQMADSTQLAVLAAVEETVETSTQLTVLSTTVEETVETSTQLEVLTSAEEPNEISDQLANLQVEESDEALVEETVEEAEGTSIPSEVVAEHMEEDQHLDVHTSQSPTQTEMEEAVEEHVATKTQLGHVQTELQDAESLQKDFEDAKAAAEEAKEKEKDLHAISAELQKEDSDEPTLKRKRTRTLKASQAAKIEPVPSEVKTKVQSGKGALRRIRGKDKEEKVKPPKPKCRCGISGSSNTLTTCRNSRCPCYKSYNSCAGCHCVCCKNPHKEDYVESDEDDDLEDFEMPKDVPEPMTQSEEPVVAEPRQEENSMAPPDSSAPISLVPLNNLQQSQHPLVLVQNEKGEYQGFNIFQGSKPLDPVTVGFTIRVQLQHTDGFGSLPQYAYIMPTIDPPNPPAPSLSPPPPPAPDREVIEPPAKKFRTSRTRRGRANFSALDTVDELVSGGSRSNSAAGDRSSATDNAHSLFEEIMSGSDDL

Substance | binding [1] | binding [2]
CLAMP N-terminal region with deletion of 68–94 (GAL4 fusion for Y2H) (D. melanogaster) (domain or fragment) | binds | 
amCLAMP^1–204 (GAL4 fusion for Y2H) (Apis mellifera) (domain or fragment) |  | binds
